Results: publication doi:10.1101/2025.11.03.684091

How the values were obtained:
[1] = system: AhNIN1 C-terminal (Arachis hypogaea); test: EMSA; settings: ~4.5 ug protein; recombinant protein
[2] = system: AhNIN2 C-terminal (Arachis hypogaea); test: EMSA; settings: ~4.5 ug protein; recombinant protein

Does “AATGGCTTCTTGCTAGCTCCATTATTGCATGCCATGAAAAGCCAAC (double strand) [AhLgh1 NRCE probe P1]” bind [1]?
Result: binds

Does “AATGGCTTCTTGCTAGCTCCATTATTGCATGCCATGAAAAGCCAAC (double strand) [AhLgh1 NRCE probe P1]” bind [2]?
Result: binds

Construct, isoform or probe ends are uncertain for at least one entry.
